We go through 4 molecules from paper PMC2664923.

Results are given in words; binding and its absence hold for the method and conditions named. Binding seen in cells or lysates may run through a third protein. Some results given as binding are weak or reduced against the parent protein; the word gives no strength. For some of these results: Sequences can lack the tags named with a protein.

For assay [1], the target named is T1, GST-Prep1 Y-LL mutant (Y59, L66 and L67 to alanine) (mouse) (UniProt O70477).
T1 sequence: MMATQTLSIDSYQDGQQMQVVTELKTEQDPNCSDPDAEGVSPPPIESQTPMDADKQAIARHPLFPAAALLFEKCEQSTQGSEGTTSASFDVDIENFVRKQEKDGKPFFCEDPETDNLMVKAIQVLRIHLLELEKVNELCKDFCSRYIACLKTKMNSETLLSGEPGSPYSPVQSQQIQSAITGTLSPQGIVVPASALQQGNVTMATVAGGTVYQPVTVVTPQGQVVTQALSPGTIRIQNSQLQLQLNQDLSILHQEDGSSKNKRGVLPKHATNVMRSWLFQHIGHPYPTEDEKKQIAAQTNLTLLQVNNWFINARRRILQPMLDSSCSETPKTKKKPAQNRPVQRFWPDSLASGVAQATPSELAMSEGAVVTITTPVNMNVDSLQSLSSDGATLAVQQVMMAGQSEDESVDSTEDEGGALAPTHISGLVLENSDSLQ
Description: pull-down; GST-fusion protein beads with cytosolic ovarian extracts; pulled-down endogenous protein detected by immunoblot; GST alone as negative control; only the target purified. On the technique in general: A western blot detects proteins with antibodies after separation by electrophoresis.

Assay [2] has as its target T2, Prep1-GST fusion protein (mouse) (UniProt O70477).
T2 sequence: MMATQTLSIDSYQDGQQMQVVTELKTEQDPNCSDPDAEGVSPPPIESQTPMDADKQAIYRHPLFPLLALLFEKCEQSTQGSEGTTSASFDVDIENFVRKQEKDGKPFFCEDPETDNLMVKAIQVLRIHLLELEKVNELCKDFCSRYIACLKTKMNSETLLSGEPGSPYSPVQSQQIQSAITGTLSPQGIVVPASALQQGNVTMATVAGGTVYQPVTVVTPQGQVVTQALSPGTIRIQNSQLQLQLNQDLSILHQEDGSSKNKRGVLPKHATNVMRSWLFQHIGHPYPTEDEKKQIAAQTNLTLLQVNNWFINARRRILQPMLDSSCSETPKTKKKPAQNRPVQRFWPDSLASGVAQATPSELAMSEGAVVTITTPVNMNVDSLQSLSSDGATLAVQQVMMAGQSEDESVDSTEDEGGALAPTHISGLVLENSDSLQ
The description is as above.

The target of assay [3] is T3, endogenous Prep1 from mouse ovarian cytosolic extracts (mouse (endogenous in mouse ovary)) (UniProt O70477).
T3 sequence: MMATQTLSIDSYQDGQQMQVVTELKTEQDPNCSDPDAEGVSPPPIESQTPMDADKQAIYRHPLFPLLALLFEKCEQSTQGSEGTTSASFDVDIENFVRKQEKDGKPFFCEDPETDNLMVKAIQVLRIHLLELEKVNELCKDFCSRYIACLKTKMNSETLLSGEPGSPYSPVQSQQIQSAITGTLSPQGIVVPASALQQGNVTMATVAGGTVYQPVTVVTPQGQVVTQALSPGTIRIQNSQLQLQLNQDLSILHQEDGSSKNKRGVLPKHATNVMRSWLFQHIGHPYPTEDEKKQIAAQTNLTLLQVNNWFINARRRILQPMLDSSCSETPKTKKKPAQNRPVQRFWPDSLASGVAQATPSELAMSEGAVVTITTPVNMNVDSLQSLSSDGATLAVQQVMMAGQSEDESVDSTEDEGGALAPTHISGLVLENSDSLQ
Description: co-IP; anti-Prep1 antibody beads on cytosolic ovarian cell extract; IP buffer 20 mM HEPES-KOH pH 7.6, 200 mM KCl, 0.5 mM EDTA, 10% glycerol, 0.5% Triton X-100; 1 h at 4°C; blot for 4EHP; no difference with or without RNase A (data not shown).

In assay [4] the target is T4, GST-Prep1 Y-L mutant (Y59A and L66A) (mouse) (UniProt O70477).
T4 sequence: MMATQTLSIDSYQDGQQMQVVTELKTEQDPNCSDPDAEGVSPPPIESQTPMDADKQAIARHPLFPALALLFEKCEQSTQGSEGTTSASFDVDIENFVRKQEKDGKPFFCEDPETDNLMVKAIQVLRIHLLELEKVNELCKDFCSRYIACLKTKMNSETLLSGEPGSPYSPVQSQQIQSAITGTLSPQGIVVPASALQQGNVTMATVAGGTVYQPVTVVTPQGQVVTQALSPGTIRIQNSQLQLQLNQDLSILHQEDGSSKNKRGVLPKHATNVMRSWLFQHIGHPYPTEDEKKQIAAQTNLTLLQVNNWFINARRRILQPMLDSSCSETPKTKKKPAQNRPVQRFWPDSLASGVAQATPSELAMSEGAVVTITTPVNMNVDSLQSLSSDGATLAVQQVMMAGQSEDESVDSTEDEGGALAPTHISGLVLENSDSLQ
Put plainly: pull-down; GST-Prep1 Y-L mutant with 4EHP; data not shown; source of 4EHP not told; only the target purified.

The target of assay [5] is T2, Prep1-GST fusion protein (mouse). Put plainly: pull-down; GST-fusion protein beads with in vitro-translated 35S-Met-labelled protein; GST beads as negative control; only the target purified.
Assay [6] concerns the target T5, 4EHP-GST fusion protein (mouse) (UniProt Q8BMB3).
T5 sequence: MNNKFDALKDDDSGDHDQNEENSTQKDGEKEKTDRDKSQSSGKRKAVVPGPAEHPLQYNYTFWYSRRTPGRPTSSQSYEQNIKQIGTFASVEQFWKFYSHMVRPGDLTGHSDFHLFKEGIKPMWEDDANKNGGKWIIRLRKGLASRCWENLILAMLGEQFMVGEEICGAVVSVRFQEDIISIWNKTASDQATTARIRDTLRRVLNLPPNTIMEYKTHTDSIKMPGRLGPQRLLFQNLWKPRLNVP
The description is as above.

The target in assay [7] is T5, 4EHP-GST fusion protein (mouse). Description: pull-down; GST-fusion protein beads with cytosolic ovarian extracts; pulled-down endogenous protein detected by immunoblot; GST alone as negative control; only the target purified.

B1: endogenous 4EHP (eukaryotic translation initiation factor 4E homolog protein) from mouse ovarian cytosolic extracts (protein, UniProt Q8BMB3 1-245)
chain: MNNKFDALKDDDSGDHDQNEENSTQKDGEKEKTDRDKSQSSGKRKAVVPGPAEHPLQYNYTFWYSRRTPGRPTSSQSYEQNIKQIGTFASVEQFWKFYSHMVRPGDLTGHSDFHLFKEGIKPMWEDDANKNGGKWIIRLRKGLASRCWENLILAMLGEQFMVGEEICGAVVSVRFQEDIISIWNKTASDQATTARIRDTLRRVLNLPPNTIMEYKTHTDSIKMPGRLGPQRLLFQNLWKPRLNVP
On to B1, for which the binding result in assay [1] was “binds weakly”; in assay [2], “binds”; in assay [3] it was “binds”; in assay [4] it was “binds”.

B2: in vitro-translated 35S-Met-4EHP (protein, UniProt Q8BMB3 1-245)
chain: MNNKFDALKDDDSGDHDQNEENSTQKDGEKEKTDRDKSQSSGKRKAVVPGPAEHPLQYNYTFWYSRRTPGRPTSSQSYEQNIKQIGTFASVEQFWKFYSHMVRPGDLTGHSDFHLFKEGIKPMWEDDANKNGGKWIIRLRKGLASRCWENLILAMLGEQFMVGEEICGAVVSVRFQEDIISIWNKTASDQATTARIRDTLRRVLNLPPNTIMEYKTHTDSIKMPGRLGPQRLLFQNLWKPRLNVP
modifications: 35S-methionine label
As to B2, the binding entry in assay [5] is “binds”.

B3: in vitro-translated 35S-Met-Prep1 (protein, UniProt O70477 1-436)
chain: MMATQTLSIDSYQDGQQMQVVTELKTEQDPNCSDPDAEGVSPPPIESQTPMDADKQAIYRHPLFPLLALLFEKCEQSTQGSEGTTSASFDVDIENFVRKQEKDGKPFFCEDPETDNLMVKAIQVLRIHLLELEKVNELCKDFCSRYIACLKTKMNSETLLSGEPGSPYSPVQSQQIQSAITGTLSPQGIVVPASALQQGNVTMATVAGGTVYQPVTVVTPQGQVVTQALSPGTIRIQNSQLQLQLNQDLSILHQEDGSSKNKRGVLPKHATNVMRSWLFQHIGHPYPTEDEKKQIAAQTNLTLLQVNNWFINARRRILQPMLDSSCSETPKTKKKPAQNRPVQRFWPDSLASGVAQATPSELAMSEGAVVTITTPVNMNVDSLQSLSSDGATLAVQQVMMAGQSEDESVDSTEDEGGALAPTHISGLVLENSDSLQ
modifications: 35S-methionine label
Turning to B3, the binding result in assay [6] is given as “binds”.

B4: endogenous Prep1 from mouse ovarian cytosolic extracts (protein, UniProt O70477 1-436)
chain: MMATQTLSIDSYQDGQQMQVVTELKTEQDPNCSDPDAEGVSPPPIESQTPMDADKQAIYRHPLFPLLALLFEKCEQSTQGSEGTTSASFDVDIENFVRKQEKDGKPFFCEDPETDNLMVKAIQVLRIHLLELEKVNELCKDFCSRYIACLKTKMNSETLLSGEPGSPYSPVQSQQIQSAITGTLSPQGIVVPASALQQGNVTMATVAGGTVYQPVTVVTPQGQVVTQALSPGTIRIQNSQLQLQLNQDLSILHQEDGSSKNKRGVLPKHATNVMRSWLFQHIGHPYPTEDEKKQIAAQTNLTLLQVNNWFINARRRILQPMLDSSCSETPKTKKKPAQNRPVQRFWPDSLASGVAQATPSELAMSEGAVVTITTPVNMNVDSLQSLSSDGATLAVQQVMMAGQSEDESVDSTEDEGGALAPTHISGLVLENSDSLQ
As to B4, the binding result in assay [7] was “binds”.
